Measured values as given in publication doi:10.1101/2025.11.12.688108.
No constants are given. Whether binding was seen depends on the method and setting. In cells and extracts the contact can be indirect. A result given as binding can be weak or reduced; the word gives no strength.

Target: T1, Dishevelled 2, wild type (WT-Dvl2) (UniProt P51142)
T1 sequence: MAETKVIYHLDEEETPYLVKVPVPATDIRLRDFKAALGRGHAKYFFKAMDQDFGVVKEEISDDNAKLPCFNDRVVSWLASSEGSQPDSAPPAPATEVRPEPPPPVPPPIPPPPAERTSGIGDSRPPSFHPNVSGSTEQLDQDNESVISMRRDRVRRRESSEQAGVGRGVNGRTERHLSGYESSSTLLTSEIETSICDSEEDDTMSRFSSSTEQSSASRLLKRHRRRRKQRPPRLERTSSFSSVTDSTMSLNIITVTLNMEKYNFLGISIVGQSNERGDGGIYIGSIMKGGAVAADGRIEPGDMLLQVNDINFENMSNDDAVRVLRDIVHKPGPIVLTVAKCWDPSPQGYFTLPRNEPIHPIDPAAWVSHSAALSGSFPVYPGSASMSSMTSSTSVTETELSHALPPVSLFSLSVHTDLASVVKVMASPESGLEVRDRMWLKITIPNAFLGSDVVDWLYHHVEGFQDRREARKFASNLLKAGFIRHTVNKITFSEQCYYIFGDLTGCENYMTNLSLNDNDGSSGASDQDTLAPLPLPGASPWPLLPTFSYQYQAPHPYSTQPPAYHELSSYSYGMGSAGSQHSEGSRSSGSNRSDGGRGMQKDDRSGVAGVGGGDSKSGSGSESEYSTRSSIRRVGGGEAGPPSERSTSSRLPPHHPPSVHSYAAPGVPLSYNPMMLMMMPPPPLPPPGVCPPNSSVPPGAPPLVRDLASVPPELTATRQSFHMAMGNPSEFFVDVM
Assay: co-IP

binding: binds
Substance: Protein Kinase C delta (PKCδ) (enzyme)
